Measured values: article PMC9866339, “In Silico and In Vitro Study of Janus Kinases Inhibitors from Naphthoquinones” (Molecules, 2023)

Legend:
TF1 cells [1] = conditions: for Total apoptotic cells, annexin V: 24-h treatment, at IC50; for Dead cells, annexin V / Early Apop. cells, annexin V / Late Apop./Dead cells, annexin V: at IC50, 24 h, dot plot quadrant
TF1 cells [2] = conditions: at IC50, 24 h, dot plot quadrant
TF1 cells [3] = assay: Presto Blue cytotoxicity assay on TF1 cells; assay type: cell-based; conditions: Homo sapiens, TF-1, 72 h, mean ± SEM, read-out: IC50 against TF1 cell viability
Method: The human erythroleukemia TF1 (ATCC CRL-2003) and HEL 92.1.7 (ATCC TIB-180) cells, which purchase from ATCC were grown in complete RPMI-1640 medium supplemented with fetal bovine serum (FBS, 10% v/v), 100 U/mL penicillin, and 100 μg/mL streptomycin. To the complete RPMI-1640 medium for TF1 cells was added 2 ng/mL of granulocyte-macrophage colony-stimulating factor (GM-CSF). Both cells were maintained at 37 °C in a 5% (v/v) CO2, 95% (v/v) air-humidified incubator.
The cytotoxicity activity of naphthoquinones against both TF1 and HEL cells was performed using the Presto Blue assay. The TF1 (50,000 cells/well) and HEL (25,000 cells/well) cell suspensions were seeded in a 96-well microplate and incubated overnight at 37 °C. […] The absorbance of the resorufin product was measured at 570 nm using a microplate reader (Infinite M200 microplate reader, Tecan, Männedorf, Switzerland) after adding 10 μL of Presto Blue reagent in TF1 and HEL cells, which incubated at 37 °C for 1 h. The treatment without compounds/known drugs was used as vehicle control.

HEL cells = assay: Presto Blue cytotoxicity assay on HEL cells; assay type: cell-based; conditions: Homo sapiens, 72 h, mean ± SEM, read-out: IC50 against HEL cell viability

| SMILES | Total apoptotic cells, annexin V (TF1 cells [1]) | Dead cells, annexin V (TF1 cells [1]) | Early Apop. cells, annexin V (TF1 cells [1]) | Late Apop./Dead cells, annexin V (TF1 cells [1]) | Apoptotic cells, caspase 3/7 (TF1 cells [2]) | Apoptotic/Dead cells, caspase 3/7 (TF1 cells [2]) | Dead cells, caspase 3/7 (TF1 cells [2]) | IC50 (TF1 cells [3]) | IC50 (HEL cells) |
| --- | --- | --- | --- | --- | --- | --- | --- | --- | --- |
| CCC(=O)c1cc2c(o1)C(=O)c1ccccc1C2=O [2′-methyl napabucasin] | ~ 40% | 0.55% | 29.15% | 4.00% | 4.85% | 2.30% | 1.55% | – | – |
| CC(=O)c1cc2c(o1)C(=O)c1ccccc1C2=O [Napabucasin, napabucasin] | ~ 40% | 1.35% | 23.90% | 3.70% | 4.70% | 1.45% | 1.60% | – | – |
| C[C@@H]1CCN(C(=O)CC#N)C[C@@H]1N(C)c1ncnc2[nH]ccc12 [Tofacitinib, tofacitinib, reference compound] | – | – | – | – | – | – | – | 23.3 ± 1.37 µM | 24.2 ± 0.67 µM |
